# The supplement of paper PMC8728848
# The list shows a part of the results.
# B1: NKp30 (Homo sapiens), O14931 (protein)
# chain: LWVSQPPEIRTLEGSSAFLPCSFNASQGRLAIGSVTWFRDEVVPGKEVRNGTPEFRGRLAPLASSRFLHDHQAELHIRDVRGHDASIYVCRVEVLGLGVGTGNGTRLVVEKEHPQLG
# Key:
# Experiment in all cases: glycan array binding signal (z-score within array); higher = stronger binding
# Details in all cases: glycan notation: IUPAC condensed, linker removed
# [1] = target: GlcNAc(b1-6)Gal(b1-4)GlcNAc
# How it was run: (§1)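 The Consortium for Functional Glycomics database supplied 3228 glycan arrays, of which those lacking an available protein sequence were dropped. The binding signal, a within-array Z-score, was averaged across arrays of the same protein sequence and across linkers. Negative scores can be read as non-binding.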
# GlcNAc(b1-6)GalNAc = target: GlcNAc(b1-6)GalNAc
# How it was run: as §1
# Kdn(a2-3)Gal(b1-3)GlcNAc = target: Kdn(a2-3)Gal(b1-3)GlcNAc
# How it was run: as §1
# Kdn(a2-3)Gal(b1-4)GlcNAc = target: Kdn(a2-3)Gal(b1-4)GlcNAc
# How it was run: as §1
# [2] = target: Man(a1-2)Man(a1-2)Man(a1-3)Man
# How it was run: as §1
# [3] = target: Man(a1-2)Man(a1-2)Man(a1-3)[Man(a1-2)Man(a1-3)[Man(a1-2)Man(a1-6)]Man(a1-6)]Man(b1-4)GlcNAc(b1-4)GlcNAc
# How it was run: as §1
# [4] = target: Man(a1-2)Man(a1-2)Man(a1-3)[Man(a1-2)Man(a1-6)[Man(a1-3)]Man(a1-6)]Man(b1-4)GlcNAc(b1-4)GlcNAc
# How it was run: as §1
# [5] = target: Man(a1-2)Man(a1-2)Man(a1-6)[Man(a1-3)]Man
# How it was run: as §1
# Man(a1-2)Man(a1-3)Man = target: Man(a1-2)Man(a1-3)Man
# How it was run: as §1
# [6] = target: Man(a1-2)Man(a1-3)[Man(a1-2)Man(a1-6)]Man
# How it was run: as §1
# [7] = target: Man(a1-2)Man(a1-3)[Man(a1-3)[Man(a1-6)]Man(a1-6)]Man(b1-4)GlcNAc(b1-4)GlcNAc
# How it was run: as §1
# [8] = target: Man(a1-2)Man(a1-3)[Man(a1-6)]Man(a1-6)[Man(a1-2)Man(a1-3)]Man(b1-4)GlcNAc(b1-4)GlcNAc
# How it was run: as §1
# Man(a1-3)[Man(a1-6)]Man = target: Man(a1-3)[Man(a1-6)]Man
# How it was run: as §1
# [9] = target: Man(a1-3)[Man(a1-6)]Man(a1-6)[Man(a1-3)]Man(b1-4)GlcNAc(b1-4)GlcNAc
# How it was run: as §1
# [10] = target: Man(a1-3)[Man(a1-6)]Man(b1-4)GlcNAc(b1-4)GlcNAc
# How it was run: as §1
# Man(b1-4)GlcNAc = target: Man(b1-4)GlcNAc
# How it was run: as §1
# Neu5Ac(a2-3)Gal = target: Neu5Ac(a2-3)Gal
# How it was run: as §1
# [11] = target: Neu5Ac(a2-3)Gal(b1-3)GalNAc
# How it was run: as §1
# [12] = target: Neu5Ac(a2-3)Gal(b1-3)GalNAc(b1-3)Gal(a1-4)Gal(b1-4)Glc
# How it was run: as §1
# [13] = target: Neu5Ac(a2-3)Gal(b1-3)GalNAc(b1-4)[Neu5Ac(a2-3)]Gal(b1-4)Glc
# How it was run: as §1
# [14] = target: Neu5Ac(a2-3)Gal(b1-3)GalNAc6S
# How it was run: as §1
# [15] = target: Neu5Ac(a2-3)Gal(b1-3)GlcNAc
# How it was run: as §1
# [16] = target: Neu5Ac(a2-3)Gal(b1-3)GlcNAc(b1-3)Gal(b1-3)GlcNAc
# How it was run: as §1
# [17] = target: Neu5Ac(a2-3)Gal(b1-3)GlcNAc(b1-3)Gal(b1-4)GlcNAc
# How it was run: as §1
# [18] = target: Neu5Ac(a2-3)Gal(b1-3)GlcNAc6S
# How it was run: as §1
# [19] = target: Neu5Ac(a2-3)Gal(b1-3)[Fuc(a1-4)]GlcNAc
# How it was run: as §1
# [20] = target: Neu5Ac(a2-3)Gal(b1-3)[Fuc(a1-4)]GlcNAc(b1-3)Gal(b1-4)[Fuc(a1-3)]GlcNAc
# How it was run: as §1
# [21] = target: Neu5Ac(a2-3)Gal(b1-3)[Neu5Ac(a2-3)Gal(b1-4)]GlcNAc
# How it was run: as §1
# [22] = target: Neu5Ac(a2-3)Gal(b1-3)[Neu5Ac(a2-6)]GalNAc
# How it was run: as §1
# Neu5Ac(a2-3)Gal(b1-4)Glc = target: Neu5Ac(a2-3)Gal(b1-4)Glc
# How it was run: as §1
# [23] = target: Neu5Ac(a2-3)Gal(b1-4)GlcNAc
# How it was run: as §1
# [24] = target: Neu5Ac(a2-3)Gal(b1-4)GlcNAc(b1-3)Gal(b1-3)GlcNAc
# How it was run: as §1
# [25] = target: Neu5Ac(a2-3)Gal(b1-4)GlcNAc(b1-3)Gal(b1-4)GlcNAc
# How it was run: as §1
# [26] = target: Neu5Ac(a2-3)Gal(b1-4)GlcNAc(b1-3)Gal(b1-4)GlcNAc(b1-3)Gal(b1-4)GlcNAc
# How it was run: as §1
# [27] = target: Neu5Ac(a2-3)Gal(b1-4)GlcNAc(b1-3)Gal(b1-4)[Fuc(a1-3)]GlcNAc
# How it was run: as §1
# [28] = target: Neu5Ac(a2-3)Gal(b1-4)GlcNAc(b1-6)[Gal(b1-3)]GalNAc
# How it was run: as §1
# [29] = target: Neu5Ac(a2-3)Gal(b1-4)GlcNAc6S
# How it was run: as §1
# [30] = target: Neu5Ac(a2-3)Gal(b1-4)[Fuc(a1-3)]GlcNAc
# How it was run: as §1
# [31] = target: Neu5Ac(a2-3)Gal(b1-4)[Fuc(a1-3)]GlcNAc(b1-3)Gal
# How it was run: as §1
# [32] = target: Neu5Ac(a2-3)Gal(b1-4)[Fuc(a1-3)]GlcNAc(b1-3)Gal(b1-4)GlcNAc
# How it was run: as §1
# [33] = target: Neu5Ac(a2-3)Gal(b1-4)[Fuc(a1-3)]GlcNAc(b1-3)Gal(b1-4)[Fuc(a1-3)]GlcNAc(b1-3)Gal(b1-4)[Fuc(a1-3)]GlcNAc
# How it was run: as §1
# [34] = target: Neu5Ac(a2-3)Gal(b1-4)[Fuc(a1-3)]GlcNAc6S
# How it was run: as §1
# [35] = target: Neu5Ac(a2-3)Gal6S(b1-4)GlcNAc
# How it was run: as §1
# [36] = target: Neu5Ac(a2-3)Gal6S(b1-4)[Fuc(a1-3)]GlcNAc
# How it was run: as §1
# Neu5Ac(a2-3)GalNAc = target: Neu5Ac(a2-3)GalNAc
# How it was run: as §1
binder,measurement,setting,value
B1,glycan array binding signal (z-score),[1],-0.869
same,glycan array binding signal (z-score),GlcNAc(b1-6)GalNAc,-0.441
same,glycan array binding signal (z-score),Kdn(a2-3)Gal(b1-3)GlcNAc,-0.28
same,glycan array binding signal (z-score),Kdn(a2-3)Gal(b1-4)GlcNAc,-0.15
same,glycan array binding signal (z-score),[2],-0.642
same,glycan array binding signal (z-score),[3],-0.291
same,glycan array binding signal (z-score),[4],-0.461
same,glycan array binding signal (z-score),[5],-0.41
same,glycan array binding signal (z-score),Man(a1-2)Man(a1-3)Man,-0.176
same,glycan array binding signal (z-score),[6],-0.278
same,glycan array binding signal (z-score),[7],-0.809
same,glycan array binding signal (z-score),[8],0.495
same,glycan array binding signal (z-score),Man(a1-3)[Man(a1-6)]Man,-0.713
same,glycan array binding signal (z-score),[9],0.331
same,glycan array binding signal (z-score),[10],-0.487
same,glycan array binding signal (z-score),Man(b1-4)GlcNAc,-0.69
same,glycan array binding signal (z-score),Neu5Ac(a2-3)Gal,-0.389
same,glycan array binding signal (z-score),[11],-0.805
same,glycan array binding signal (z-score),[12],0
same,glycan array binding signal (z-score),[13],0.29
same,glycan array binding signal (z-score),[14],0.003
same,glycan array binding signal (z-score),[15],-0.634
same,glycan array binding signal (z-score),[16],0.554
same,glycan array binding signal (z-score),[17],-0.764
same,glycan array binding signal (z-score),[18],0.205
same,glycan array binding signal (z-score),[19],-0.652
same,glycan array binding signal (z-score),[20],-0.537
same,glycan array binding signal (z-score),[21],0.776
same,glycan array binding signal (z-score),[22],-0.06
same,glycan array binding signal (z-score),Neu5Ac(a2-3)Gal(b1-4)Glc,0.198
same,glycan array binding signal (z-score),[23],0.028
same,glycan array binding signal (z-score),[24],1.11
same,glycan array binding signal (z-score),[25],0.237
same,glycan array binding signal (z-score),[26],0.41
same,glycan array binding signal (z-score),[27],0.561
same,glycan array binding signal (z-score),[28],2.26
same,glycan array binding signal (z-score),[29],0.308
same,glycan array binding signal (z-score),[30],-0.128
same,glycan array binding signal (z-score),[31],0.518
same,glycan array binding signal (z-score),[32],-0.147
same,glycan array binding signal (z-score),[33],0.461
same,glycan array binding signal (z-score),[34],0.391
same,glycan array binding signal (z-score),[35],0.548
same,glycan array binding signal (z-score),[36],0.516
same,glycan array binding signal (z-score),Neu5Ac(a2-3)GalNAc,-0.59

# Looked up one by one from the list above:
binder,measurement,setting,value
B1,glycan array binding signal (z-score),Kdn(a2-3)Gal(b1-4)GlcNAc,-0.15
same,glycan array binding signal (z-score),[20],-0.537

# Laid out differently: entries from further up.
binder	measurement	setting	value
B1	glycan array binding signal (z-score)	Man(a1-3)[Man(a1-6)]Man	-0.713
same	glycan array binding signal (z-score)	[16]	0.554
